Earlier results on one compound are cited in article PMC7017409, “Synthetic Approaches for Piperidone-Based Templates as Scaffolds to Access Chirally Enriched Donepezil Analogues” (ACS Omega, 2020).

The conditions of this data set: aqueous solution at 37 °C; cited from earlier work.

Structures are written as SMILES.

Turning to `COc1cc2c(cc1OC)C(=O)C(CC1CCN(Cc3ccccc3)CC1)C2` (stereo not shown) [donepezil 1, donepezil], the racemization half-life is 78 h.
